PubChem BioAssay AID720505, Drosophila RNAi Screening Center, 2013

Test: 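Genes needed for store-operated calcium entry in fly cells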 (primary screen)
Cells: Drosophila S2R+ cells
Reagents: long dsRNA against Drosophila genes
Treatment: thapsigargin (2 µM) in calcium-free buffer to empty internal stores, then 2 mM calcium added back
Read-out: 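Stores emptied by 2 µM thapsigargin without calcium, then 2 mM calcium re-added; fluo-4 fluorescence followed by FLIPR in 384-well plates, per-well averaged endpoint, raw; two screen passes, some wells retested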
Reading the numbers: calcium signal and retest calcium signal: higher = more calcium entry after store depletion
Call rule: 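Knock-downs counted as hits when calcium entry dropped relative to STIM1 positive and Rho1 negative controls present on each plate; roughly 1500 genes called, with reductions of differing size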
Calls: active = called as lowering calcium entry; inactive = not called
In all, the deposit lists about 20,000 reagents; below is a random part of those with a known target gene and a result. Over the whole deposit, about 2,100 (10%) are marked active. 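Raw plate signals without normalisation; calls rest on control-based scores that were not deposited; replicate 2 separates called from uncalled poorly.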 Names joined by + are all predicted targets of the reagent. Not given: the amount of reagent, the time to read-out.

| gene | DRSC id | calcium signal, replicate 1 | calcium signal, replicate 2 | retest calcium signal, replicate 1 | retest calcium signal, replicate 2 | Outcome |
| --- | --- | --- | --- | --- | --- | --- |
| Ir85a (GeneID 41052) | DRSC14382 | 108 | 160 | – | – | inactive |
| kay (GeneID 3772082) | DRSC15048 | 216 | 140 | – | – | inactive |
| kay (GeneID 3772082) | DRSC16977 | 81.2 | 108 | – | – | inactive |
| Oseg5 (GeneID 35349) | DRSC03209 | 173 | 124 | – | – | inactive |
| Tlk (GeneID 318206) | DRSC17731 | 153 | 103 | – | – | inactive |
| Tlk (GeneID 318206) | DRSC17835 | 146 | 80.3 | – | – | inactive |
| Tlk (GeneID 318206) | DRSC22924 | 146 | 188 | – | – | inactive |
| Tlk (GeneID 318206) | DRSC22926 | 110 | 110 | – | – | active |
| Tlk (GeneID 318206) | DRSC22938 | 93.8 | 167 | – | – | inactive |
| Tlk (GeneID 318206) | DRSC23163 | 65.9 | 79.1 | – | – | inactive |
| CG17834 (GeneID 34191) | DRSC02637 | 54 | 78.2 | – | – | active |
| CG17999 (GeneID 37357) | DRSC04300 | 147 | 85.3 | – | – | inactive |
| CG34033 (GeneID 3885602) | DRSC05190 | 138 | 126 | – | – | inactive |
| CG15093 (GeneID 37166) | DRSC06522 | 156 | 120 | – | – | inactive |
| mGluR (GeneID 43838) | DRSC17215 | 118 | 124 | – | – | inactive |
| Roc1b + Cdc5 | DRSC08687 | 93.9 | 93.8 | – | – | inactive |
| CG5071 (GeneID 43090) | DRSC15710 | 99.4 | 117 | – | – | inactive |
| CG5071 (GeneID 43090) | DRSC22570 | 94.5 | 186 | – | – | inactive |
| pros (GeneID 41363) | DRSC17032 | 87 | 85.1 | – | – | inactive |
| pros (GeneID 41363) | DRSC22612 | 126 | 219 | – | – | inactive |
| CG34367 (GeneID 5740879) | DRSC02238 | 176 | 146 | – | – | inactive |
| CG34367 (GeneID 5740879) | DRSC02850 | 184 | 115 | – | – | inactive |
| Ku80 (GeneID 34930) | DRSC02699 | 106 | 87.5 | – | – | inactive |
| Ect3 (GeneID 41457) | DRSC15462 | 179 | 104 | – | – | inactive |
| CG17327 (GeneID 41598) | DRSC15225 | 77.2 | 90.5 | – | – | inactive |
| RpL22 (GeneID 31022) | DRSC18707 | 6114 | 79.6 | 147 | 116 | active |
| RpL22 (GeneID 31022) | DRSC22819 | 55.4 | 78.8 | – | – | active |
| CG4646 (GeneID 36459) | DRSC06876 | 108 | 168 | – | – | inactive |
| Men (GeneID 47173) | DRSC12924 | – | – | – | – | active |
| Men (GeneID 47173) | DRSC16738 | 184 | 76.5 | 10685 | 164 | inactive |
| Men (GeneID 47173) | DRSC22694 | 69.8 | 149 | – | – | inactive |
| CG17362 (GeneID 39545) | DRSC10267 | 109 | 99.6 | – | – | inactive |
| Ca-beta (GeneID 34557) | DRSC02406 | 212 | 166 | – | – | inactive |
| Ca-beta (GeneID 34557) | DRSC02407 | 202 | 165 | – | – | inactive |
| Ca-beta (GeneID 34557) | DRSC03285 | 171 | 198 | 132 | 125 | inactive |
| Ca-beta (GeneID 34557) | DRSC21432 | 161 | 102 | – | – | inactive |
| CG34169 (GeneID 5740400) | DRSC01579 | 130 | 93.7 | – | – | inactive |
| Ugt305A1 (GeneID 59217) | DRSC08541 | 73.3 | 102 | – | – | inactive |
| PlexA (GeneID 43832) | DRSC17220 | 133 | 123 | – | – | inactive |
| CG10713 (GeneID 39508) | DRSC09786 | 83.1 | 103 | – | – | inactive |
| CG9459 (GeneID 41213) | DRSC16496 | 126 | 84.1 | – | – | inactive |
| CG12426 (GeneID 43342) | DRSC14516 | 122 | 111 | – | – | inactive |
| ATPsynbetaL (GeneID 39761) | DRSC10503 | 101 | 188 | – | – | inactive |
| gammaSnap1 (GeneID 37842) | DRSC04686 | 174 | 92.4 | – | – | inactive |
| CG15522 (GeneID 43546) | DRSC15059 | 174 | 157 | – | – | inactive |
| slow (GeneID 38540) | DRSC08589 | 98.8 | 98.1 | – | – | inactive |
| slow (GeneID 38540) | DRSC08590 | 76.2 | 84.1 | – | – | inactive |
| su(Hw) (GeneID 41740) | DRSC17074 | 109 | 94.6 | – | – | inactive |
| Cep89 (GeneID 36733) | DRSC07110 | 113 | 174 | – | – | inactive |
| Prosalpha3T (GeneID 43679) | DRSC15226 | 149 | 161 | – | – | inactive |
| mRpL28 (GeneID 33715) | DRSC02724 | 154 | 84 | – | – | inactive |
| EloB (GeneID 42435) | DRSC16663 | 165 | 160 | – | – | inactive |
| CG17778 (GeneID 30996) | DRSC18504 | 63.9 | 75.1 | – | – | active |
| GAPcenA (GeneID 38945) | DRSC10771 | 83.3 | 45.5 | – | – | inactive |
| CG15084 (GeneID 37178) | DRSC06515 | 111 | 136 | 102 | 162 | inactive |
| CG15084 (GeneID 37178) | DRSC21403 | 155 | 115 | – | – | inactive |
| CG15861 (GeneID 37990) | DRSC04274 | 86.8 | 152 | – | – | inactive |
| Osi14 (GeneID 40770) | DRSC12368 | 120 | 82 | – | – | inactive |
| Dic61B (GeneID 38020) | DRSC08588 | 124 | 101 | – | – | inactive |
| CG14006 (GeneID 33802) | DRSC02338 | 167 | 95.7 | – | – | inactive |
| Scm (GeneID 41168) | DRSC16853 | 115 | 105 | – | – | inactive |
| CG42367 (GeneID 318998) | DRSC21388 | 123 | 92.3 | – | – | inactive |
| Dus3 (GeneID 35264) | DRSC02059 | 181 | 79.7 | – | – | inactive |
| CG5866 (GeneID 42097) | DRSC15900 | 110 | 127 | – | – | inactive |
| CG13614 (GeneID 42911) | DRSC14617 | 247 | 91.9 | – | – | inactive |
| CYLD (GeneID 34380) | DRSC02870 | 195 | 174 | – | – | inactive |
| Lcp2 (GeneID 35818) | DRSC07456 | 129 | 168 | – | – | inactive |
| Or67a (GeneID 39109) | DRSC11240 | 38.1 | 123 | – | – | inactive |
| botv (GeneID 37198) | DRSC05949 | 111 | 120 | – | – | inactive |
| CG11248 (GeneID 40411) | DRSC11644 | 109 | 101 | – | – | inactive |
| bor (GeneID 53565) | DRSC16915 | 125 | 151 | – | – | inactive |
| CecA2 (GeneID 43597) | DRSC16604 | 111 | 77.5 | – | – | inactive |
| dpr7 (GeneID 2768865) | DRSC17109 | – | – | – | – | inactive |
| Spg7 (GeneID 31253) | DRSC18469 | 103 | 135 | – | – | inactive |
| CG30114 (GeneID 246465) | DRSC05707 | 61.9 | 160 | – | – | active |
| mtm (GeneID 33845) | DRSC03576 | 100 | 237 | – | – | inactive |
| Rbp4 (GeneID 41668) | DRSC16818 | 167 | 199 | – | – | inactive |
| Hsp60D (GeneID 34763) | DRSC02543 | 120 | 158 | – | – | inactive |
| CG13390 (GeneID 34154) | DRSC02261 | 157 | 181 | – | – | inactive |
| CG9445 (GeneID 50147) | DRSC05006 | 107 | 109 | – | – | inactive |
| CG10171 (GeneID 39501) | DRSC09711 | 66.1 | 97.1 | – | – | active |
| Cpr47Ef (GeneID 36194) | DRSC06336 | 112 | 146 | – | – | inactive |
| Cpr47Ef (GeneID 36194) | DRSC22450 | 125 | 172 | – | – | inactive |

Reprinted from the listing for reference:
| gene | DRSC id | calcium signal, replicate 1 | calcium signal, replicate 2 | retest calcium signal, replicate 1 | retest calcium signal, replicate 2 | Outcome |
| --- | --- | --- | --- | --- | --- | --- |
| Men (GeneID 47173) | DRSC12924 | – | – | – | – | active |
| Men (GeneID 47173) | DRSC16738 | 184 | 76.5 | 10685 | 164 | inactive |
| Men (GeneID 47173) | DRSC22694 | 69.8 | 149 | – | – | inactive |
| CG17362 (GeneID 39545) | DRSC10267 | 109 | 99.6 | – | – | inactive |
| Ca-beta (GeneID 34557) | DRSC02406 | 212 | 166 | – | – | inactive |
| Ca-beta (GeneID 34557) | DRSC02407 | 202 | 165 | – | – | inactive |
| Ca-beta (GeneID 34557) | DRSC03285 | 171 | 198 | 132 | 125 | inactive |
| Ca-beta (GeneID 34557) | DRSC21432 | 161 | 102 | – | – | inactive |
| CG34169 (GeneID 5740400) | DRSC01579 | 130 | 93.7 | – | – | inactive |
| Ugt305A1 (GeneID 59217) | DRSC08541 | 73.3 | 102 | – | – | inactive |
| PlexA (GeneID 43832) | DRSC17220 | 133 | 123 | – | – | inactive |
| CG10713 (GeneID 39508) | DRSC09786 | 83.1 | 103 | – | – | inactive |
| CG9459 (GeneID 41213) | DRSC16496 | 126 | 84.1 | – | – | inactive |
